Experimental data as given in patent US20210369684A1 (MOUNT TAM THERAPEUTICS, INC., priority 2018, published 2021).
Where “and” joins values, the source holds several entries; their conditions need not be identical. Identical values can stand only once. This continues a long series; more values of the same kind are listed elsewhere.

Experiment: Whole blood concentrations after IP administration to mice (LC-MS/MS)
Type: in vivo, mouse
Conditions: 10 mg/kg IP QD x 3 days, Day 1, 2.00 h
Experimental: Shown below are whole blood concentrations following administration of the compound of Formula II to mice. The compound of Formula II was administered to mice at 2 mg/kg or 10 mg/kg for three days and the concentration of the compound in whole blood determined. These determinations were made using protein precipitation, liquid chromatography (LC), and mass spectrometry (MS/MS). Ten μl aliquots of whole blood and matrix calibration standards were distributed in a 96-well plate; 10 μl aliquots of blank matrix for matrix blanks and control blanks were included as controls. Ten μl of water was added to each sample followed by vortexing. One hundred sixty […] of internal standard was added to each sample except the matrix blanks; 160 μl 70:30 water:acetonitrile (ACN) was added to matrix blanks. This was followed by a […]. One hundred fifty μl of the resultant supernatant was then transferred to a new 96-well plate and the samples blown to dryness at 35° C. The resultant product was then reconstituted with 90 μl ACN.

Formula II Concentrations in Mouse Whole Blood (individual animals 10, 11, 12): 869 ng/mL and 503 ng/mL
Formula II Concentrations in Mouse Whole Blood, Mean (mean): 722 ng/mL
Compound: CO[C@H]1C[C@@H]2CC[C@@H](C)[C@@](O)(C2)C(=O)C(=O)N2CCCC[C@H]2C(=O)O[C@H]([C@H](C)C[C@H]2C[C@H]3C[C@@H]2C[C@@H]3O)CC(=O)[C@H](C)/C=C(\C)[C@@H](O)[C@@H](OC)C(=O)[C@H](C)C[C@H](C)/C=C/C=C/C=C/1C [Formula II, C37-[(1R,2S,4R,5S)-5-hyhroxybicyclo[2.2.1]heptane] rapamycin]
